# The supplement of paper PMC12297408
# The list shows a part of the results, in another mix than the full data.
# Tested on: Plasmodium falciparum NF54/iGP1_RE9H ulg8 stage V gametocytes
# Experiment: gametocyte viability (luciferase signal relative to DMSO control) (% of DMSO control); higher = less gametocytocidal activity, active = 50 or less
# Details: exposure time: 72 h
# Procedure, shortened: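 Compounds from 10 mM DMSO stocks were spotted at nanolitre scale into 96-well plates, and day-12 stage V NF54/iGP1_RE9Hulg8 gametocytes (~2.5% gametocytemia, 3% hematocrit; medium with 0.5% Albumax II) were added to reach 10 µM or 1 µM, one well per concentration. The plates were kept at 37 °C for 72 h. Luminescence was then read on an IVIS Lumina II after mixing 90 µl of culture with 10 µl D-luciferin (30 mg/ml). Viability values are relative to the plate's mean DMSO vehicle signal.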
smiles,measurement,setting,value
Cc1ccccc1-n1c(Cn2nc(-c3cccc(O)c3)c3c(N)ncnc32)nc2cccc(C)c2c1=O,gametocyte viability,concentration: 1 µM,inactive: 94.8
same,gametocyte viability,concentration: 10 µM,inactive: 91.9
